Values of other authors as cited in patent US20200281834A1, “COMPOSITION FOR PROMOTING EXPRESSION OF AQUAPORIN 3, AND USE THEREOF” (SUNTORY HOLDINGS LIMITED, priority 2017, published 2020).
At least one compound was matched to its structure with a doubt left.

Test system: aquaporin 3
Details: stated as known; cited from earlier work

CC1=C(/C=C/C(C)=C/C=C/C(C)=C/C(=O)O)C(C)(C)CCC1 [Retinoic acid, retinoic acid]
Effect on expression level of aquaporin 3 in skin epithelial cells (known): increases the expression level of aquaporin 3
